Results deposited as PubChem BioAssay AID1159578 (Peter MacCallum Cancer Centre, 2015)

- Assay: 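Genome-wide hunt for genes controlling movement of lymphatic endothelial cells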 (primary screen)
- Cells: human lymphatic endothelial cells
- Knock-down reagent: siRNA pool against human genes, 40 nM
- Time to read-out: 48 h after transfection
- Measured: 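Cells stained with dye and imaged after a scratch; covered wound area and nuclei counted, duplicates averaged, migration set against mock wells and turned into a robust z-score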
- Direction: migration robust z-score: higher = faster migration into the scratch; nuclei per well: higher = more cells in the well
- Active means: 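Pools averaging fewer than 3300 nuclei are never called; remaining pools count as changed when migration robust z lies outside -2 to 2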
- Calls: active = migration changed; inactive = no migration change, or too few cells
Here is an unselected part of about 18,000 reagents tested. About 1,030 of them (5.7%) were called active. 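Inactive calls also include pools with fewer than 3300 nuclei, whose migration was not assessed.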 The raw values are shown without normalisation. Further read-outs or replicates are left out here. No sequences are given here.

For NOS1, what was measured?
migration robust z-score: 0.03; nuclei per well, duplicate mean: 4725; outcome: inactive

With SCD5, what does the deposit list?
migration robust z-score: 0.39; nuclei per well, duplicate mean: 4540; outcome: inactive

Which result is listed for ATP5MC3?
migration robust z-score: 0.8; nuclei per well, duplicate mean: 4269; outcome: inactive

With KANK4, what was measured?
migration robust z-score: 1.85; nuclei per well, duplicate mean: 6331; outcome: inactive

Which result is listed for SPG7?
migration robust z-score: 0.1; nuclei per well, duplicate mean: 5400; outcome: inactive

In a second layout: results already given.
SCD5
- migration robust z-score: 0.39
- nuclei per well, duplicate mean: 4540
- outcome: inactive

ATP5MC3
- migration robust z-score: 0.8
- nuclei per well, duplicate mean: 4269
- outcome: inactive

Further records follow.
For PPIL6, what does the deposit list?
migration robust z-score: -0.13; nuclei per well, duplicate mean: 5670; outcome: inactive

How did the screen score COL6A5?
migration robust z-score: 0.62; nuclei per well, duplicate mean: 5795; outcome: inactive

What did the screen give for SLC22A5?
migration robust z-score: -0.29; nuclei per well, duplicate mean: 4876; outcome: inactive

With TLK2, what does the deposit list?
migration robust z-score: 0.36; nuclei per well, duplicate mean: 4421; outcome: inactive

With HLA-C, what was measured?
migration robust z-score: 0.24; nuclei per well, duplicate mean: 6045; outcome: inactive

For OR11H6, how do the results read?
migration robust z-score: -1.48; nuclei per well, duplicate mean: 4486; outcome: inactive

With LGALS3BP, how do the results read?
migration robust z-score: 1.01; nuclei per well, duplicate mean: 3924; outcome: inactive

What is on record for KRTAP17-1?
migration robust z-score: -0.99; nuclei per well, duplicate mean: 4938; outcome: inactive

What did the screen give for PDE10A?
migration robust z-score: -0.83; nuclei per well, duplicate mean: 4562; outcome: inactive
